Substitutions are numbered along the chain they refer to. Results are given in words; binding and its absence hold for the method and conditions named. In cells and extracts the contact can be indirect. Some results given as binding are weak or reduced against the parent protein; the word gives no strength. For some of these results: Tags and fused reporters may be left off the sequences shown.
Columns and labels:
[1] = biological target: T1, GST-OGT TPR domain (1-473 aa) (UniProt O15294); experiment: pull-down; GST-tagged OGT deletion mutants with HEK-293T cells; western blot for USP9X; only the target purified
T1 sequence: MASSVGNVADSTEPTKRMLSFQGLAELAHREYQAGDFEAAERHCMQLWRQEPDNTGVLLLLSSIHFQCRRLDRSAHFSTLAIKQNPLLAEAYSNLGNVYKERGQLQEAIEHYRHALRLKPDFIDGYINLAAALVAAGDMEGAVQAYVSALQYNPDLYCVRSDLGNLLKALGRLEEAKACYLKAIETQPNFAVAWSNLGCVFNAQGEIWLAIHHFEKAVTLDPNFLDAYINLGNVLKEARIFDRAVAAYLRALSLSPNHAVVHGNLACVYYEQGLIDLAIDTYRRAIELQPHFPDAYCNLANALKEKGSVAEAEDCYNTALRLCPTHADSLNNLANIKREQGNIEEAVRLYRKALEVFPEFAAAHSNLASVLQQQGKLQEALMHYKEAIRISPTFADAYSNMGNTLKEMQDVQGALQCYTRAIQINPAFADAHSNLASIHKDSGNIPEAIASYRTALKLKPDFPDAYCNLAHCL

Amino acid sequences for entries named in this document (tags omitted).
UniProt Q93008: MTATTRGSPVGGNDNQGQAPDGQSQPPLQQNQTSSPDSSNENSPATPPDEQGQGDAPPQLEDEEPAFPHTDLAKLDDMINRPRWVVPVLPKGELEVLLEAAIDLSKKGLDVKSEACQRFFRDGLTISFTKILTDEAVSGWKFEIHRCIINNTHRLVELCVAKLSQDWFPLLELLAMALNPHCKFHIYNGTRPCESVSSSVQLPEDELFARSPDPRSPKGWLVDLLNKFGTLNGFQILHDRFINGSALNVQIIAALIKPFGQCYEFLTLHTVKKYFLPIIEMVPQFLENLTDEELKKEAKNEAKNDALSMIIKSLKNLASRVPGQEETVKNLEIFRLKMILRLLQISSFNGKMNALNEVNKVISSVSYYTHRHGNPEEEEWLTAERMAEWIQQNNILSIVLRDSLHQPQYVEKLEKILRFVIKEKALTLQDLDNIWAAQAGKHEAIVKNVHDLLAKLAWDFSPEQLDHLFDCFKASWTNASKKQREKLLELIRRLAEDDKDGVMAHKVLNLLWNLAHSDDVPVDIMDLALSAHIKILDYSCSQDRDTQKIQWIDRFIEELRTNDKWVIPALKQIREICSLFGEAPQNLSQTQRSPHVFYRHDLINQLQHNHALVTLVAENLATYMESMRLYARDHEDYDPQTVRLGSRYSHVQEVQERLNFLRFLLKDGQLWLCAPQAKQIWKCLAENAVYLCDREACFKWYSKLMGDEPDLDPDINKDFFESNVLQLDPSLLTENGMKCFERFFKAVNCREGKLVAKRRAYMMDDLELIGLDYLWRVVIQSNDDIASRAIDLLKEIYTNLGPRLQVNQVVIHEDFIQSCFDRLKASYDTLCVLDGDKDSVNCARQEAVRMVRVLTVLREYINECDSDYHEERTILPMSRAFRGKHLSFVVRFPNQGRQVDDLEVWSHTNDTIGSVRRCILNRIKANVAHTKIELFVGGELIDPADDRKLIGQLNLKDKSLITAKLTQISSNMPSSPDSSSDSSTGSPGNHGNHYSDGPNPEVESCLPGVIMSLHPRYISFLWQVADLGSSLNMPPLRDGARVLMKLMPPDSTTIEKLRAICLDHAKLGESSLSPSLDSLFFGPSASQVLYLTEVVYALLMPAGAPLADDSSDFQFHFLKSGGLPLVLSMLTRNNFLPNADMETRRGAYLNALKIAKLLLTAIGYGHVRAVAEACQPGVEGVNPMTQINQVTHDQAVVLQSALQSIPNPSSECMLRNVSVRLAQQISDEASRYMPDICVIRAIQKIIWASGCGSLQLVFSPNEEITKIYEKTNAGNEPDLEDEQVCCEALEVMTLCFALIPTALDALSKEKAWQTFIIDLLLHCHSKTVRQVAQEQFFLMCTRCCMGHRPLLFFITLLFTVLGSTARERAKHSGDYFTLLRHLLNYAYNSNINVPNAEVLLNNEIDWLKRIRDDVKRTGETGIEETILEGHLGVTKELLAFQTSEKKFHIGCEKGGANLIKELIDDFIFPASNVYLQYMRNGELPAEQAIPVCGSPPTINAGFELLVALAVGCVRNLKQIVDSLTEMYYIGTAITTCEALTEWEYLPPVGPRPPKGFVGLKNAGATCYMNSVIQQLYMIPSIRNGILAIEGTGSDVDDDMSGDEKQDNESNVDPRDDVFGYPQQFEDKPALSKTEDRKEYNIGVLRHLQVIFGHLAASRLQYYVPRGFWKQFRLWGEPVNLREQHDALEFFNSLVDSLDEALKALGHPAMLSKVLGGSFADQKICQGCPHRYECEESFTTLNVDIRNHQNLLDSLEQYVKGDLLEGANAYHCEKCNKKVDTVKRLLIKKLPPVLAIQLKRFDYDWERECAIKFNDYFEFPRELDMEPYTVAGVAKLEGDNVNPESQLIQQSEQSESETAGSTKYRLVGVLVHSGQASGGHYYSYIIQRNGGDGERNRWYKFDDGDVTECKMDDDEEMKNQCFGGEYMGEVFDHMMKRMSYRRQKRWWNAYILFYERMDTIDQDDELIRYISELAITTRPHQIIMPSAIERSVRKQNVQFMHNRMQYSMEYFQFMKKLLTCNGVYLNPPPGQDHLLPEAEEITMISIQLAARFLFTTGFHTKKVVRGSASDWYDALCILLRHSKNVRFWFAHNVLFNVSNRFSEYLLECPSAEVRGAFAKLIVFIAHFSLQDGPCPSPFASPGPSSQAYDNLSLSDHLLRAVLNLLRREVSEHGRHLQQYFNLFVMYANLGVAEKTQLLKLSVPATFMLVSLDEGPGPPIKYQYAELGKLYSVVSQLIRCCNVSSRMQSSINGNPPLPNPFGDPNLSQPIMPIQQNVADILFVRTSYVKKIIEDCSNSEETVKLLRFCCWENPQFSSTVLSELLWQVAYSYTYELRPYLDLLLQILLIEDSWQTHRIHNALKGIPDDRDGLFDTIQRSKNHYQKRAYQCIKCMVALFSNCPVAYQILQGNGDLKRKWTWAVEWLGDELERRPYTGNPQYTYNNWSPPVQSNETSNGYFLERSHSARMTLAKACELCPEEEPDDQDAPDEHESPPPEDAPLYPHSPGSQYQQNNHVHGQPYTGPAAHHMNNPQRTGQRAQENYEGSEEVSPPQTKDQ

[2] = biological target: T2, endogenous OGT in H1299 cells (human (endogenous in H1299)) (UniProt O15294); experiment: co-IP; endogenous co-IP with anti-OGT antibody in H1299 cells; A/G Magnetic Beads; western blot
T2 sequence: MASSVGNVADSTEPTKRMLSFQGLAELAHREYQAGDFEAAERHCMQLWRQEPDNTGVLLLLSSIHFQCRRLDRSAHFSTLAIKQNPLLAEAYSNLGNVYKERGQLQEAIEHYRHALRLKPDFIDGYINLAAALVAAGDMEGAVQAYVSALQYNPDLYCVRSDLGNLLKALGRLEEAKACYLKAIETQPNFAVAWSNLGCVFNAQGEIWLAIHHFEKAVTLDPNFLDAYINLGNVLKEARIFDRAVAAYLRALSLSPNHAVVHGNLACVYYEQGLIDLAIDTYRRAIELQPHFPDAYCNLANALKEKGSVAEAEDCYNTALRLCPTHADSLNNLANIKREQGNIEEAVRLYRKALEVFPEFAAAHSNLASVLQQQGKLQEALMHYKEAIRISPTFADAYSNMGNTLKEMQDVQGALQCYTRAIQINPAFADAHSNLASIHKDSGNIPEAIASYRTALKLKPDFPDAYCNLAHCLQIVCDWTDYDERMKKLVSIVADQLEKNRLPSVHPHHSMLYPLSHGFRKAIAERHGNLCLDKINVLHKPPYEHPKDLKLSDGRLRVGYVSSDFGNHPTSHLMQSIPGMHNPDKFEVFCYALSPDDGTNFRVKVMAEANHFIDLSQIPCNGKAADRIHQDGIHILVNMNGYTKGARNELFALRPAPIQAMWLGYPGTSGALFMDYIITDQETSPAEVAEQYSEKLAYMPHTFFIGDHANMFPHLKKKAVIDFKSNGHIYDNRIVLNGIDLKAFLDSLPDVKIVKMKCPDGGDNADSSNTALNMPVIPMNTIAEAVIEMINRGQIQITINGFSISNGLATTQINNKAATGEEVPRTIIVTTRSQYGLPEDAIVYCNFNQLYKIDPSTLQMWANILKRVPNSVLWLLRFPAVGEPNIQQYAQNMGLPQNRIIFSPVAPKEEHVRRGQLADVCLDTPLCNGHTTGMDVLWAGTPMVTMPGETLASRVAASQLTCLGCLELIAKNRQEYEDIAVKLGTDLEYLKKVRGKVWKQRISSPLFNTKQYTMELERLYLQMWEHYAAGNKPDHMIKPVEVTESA

[3] = biological target: T3, Flag-OGT R348K (expressed in H1299 cells after knockdown of endogenous OGT) (UniProt O15294); experiment: co-IP; anti-Flag antibody, H1299 cells transfected with Flag-OGT WT/R348K/R348F after knockdown of endogenous OGT; also with TP064 (CARM1 inhibitor) treatment for 24 h; western blot
T3 sequence: T2 sequence with R348K

[4] = biological target: T4, Flag-OGT WT (expressed in H1299 cells after knockdown of endogenous OGT) (UniProt O15294); experiment: as above
T4 sequence: T2 sequence

Substance	binding [1]	binding [2]	binding [3]	binding [4]
USP9X in HEK-293T cells (from UniProt Q93008 1-2554) (enzyme)	binds	–	–	–
endogenous USP9X in H1299 cells (from UniProt Q93008 1-2554) (enzyme)	–	binds	binds	binds
